# Out of some 360,000 compounds screened, about 9,100 (2.5%) were called active. The inconclusive results got no clear call from the source; some entries with a clear call stand among them for comparison. No stated cut-off is given here; in the data, active means max response below about -50%; inconclusive means no clear call, values can overlap the other calls; inactive means above that.
# The chains behind the UniProt entries cited, without tags or fusion partners.
# UniProt P35462, whole entry, looked up: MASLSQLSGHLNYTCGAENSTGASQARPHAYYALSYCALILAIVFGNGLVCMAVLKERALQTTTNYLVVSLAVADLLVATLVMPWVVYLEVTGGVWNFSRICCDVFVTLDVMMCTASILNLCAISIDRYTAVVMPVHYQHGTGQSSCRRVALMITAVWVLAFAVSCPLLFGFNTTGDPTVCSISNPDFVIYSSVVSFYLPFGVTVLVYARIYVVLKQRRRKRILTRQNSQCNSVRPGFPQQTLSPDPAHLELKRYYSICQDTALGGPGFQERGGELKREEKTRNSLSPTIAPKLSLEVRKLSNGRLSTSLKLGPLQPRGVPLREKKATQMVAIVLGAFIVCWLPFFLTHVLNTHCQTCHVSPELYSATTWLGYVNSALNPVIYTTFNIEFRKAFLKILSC
# Target: D(3) dopamine receptor (Homo sapiens) (UniProt P35462)
# Assay: qHTS of D3 Dopamine Receptor Antagonist: qHTS
# Details: D3R cells, DiscoveRx beta-arrestin luminescence, antagonist mode; hits give low values
# From the text: D3 DARs represent a very important target for the treatment of several neuropsychiatric disorders. Indeed, one of the most promising therapeutic applications for the D3 DAR is in the area of addiction and related disorders. […] These findings have been observed with a number of addictive substances including cocaine, amphetamine, nicotine, and alcohol. […] Antagonism of the D3 DAR may also be therapeutic in the treatment of schizophrenia or psychosis. […] Since the D3 DAR is expressed in areas of the CNS associated with the control of mood and emotion, it has been hypothesized that selective antagonism of the D3 DAR may be effective in treating psychosis without inducing the motor side effects typically seen with D2 DAR antagonists.
# This part of the project aims to discover novel antagonist.
# NIH Chemical Genomics Center [NCGC]
# NIH Molecular Libraries Probe Centers Network [MLPCN]
# Assay Submitter (PI): David Sibley, NINDS
# Freshly passaged cells are plated in 1536 well white, solid bottom plates at a density of 1500 cells/well in 3microl of complete media. After an overnight incubation at 37 degrees C in 5% CO2, cells are loaded with 23nl of test compound from the compound library (as well as dopamine controls) using a 1536 pintool and incubated at 37 degrees C for 90 minutes. Two microliters of DiscoveRx reagent is then added to all cells, and they are incubated for an additional 30 - 60 minutes at room temperature. Following incubation, luminescence is measured on a ViewLux CCD-based luminometer reader using a 20 sec exposure time.
# On the % scale 0 is the no-effect control and ±100 the full control effect.
row,Structure (SMILES),"max response, negative = inhibition"
1,C#CCN(C)C(C)Cc1ccccc1 (stereo unspecified),inconclusive: -42.1%
2,C[C@@H]1CN([C@H](C)CO)C(=O)CCCn2nncc2CO[C@H]1CN(C)C(=O)Oc1ccccc1,inactive: -24.3%
3,COc1cc2c(cc1OC)[C@H]1C(=O)c3ccc4c(c3O[C@H]1CO2)C[C@@H](C(C)(C)O)O4,inactive: 38.9%
4,Cc1ccc(Cl)cc1-n1c(O)c(C=NCCCN2CCOCC2)c(=O)[nH]c1=O,inconclusive: -32.6%
5,COc1cc(Br)cc(CN2CCN(C)CC2)c1O,inconclusive: -38.5%
6,CN1c2ccc([N+](=O)[O-])cc2CC2(C(=O)NC(=O)N(c3ccc(Br)cc3)C2=O)C1c1ccccc1 (stereo unspecified),active: -50.6%
7,CCCC1(CCC)C(=O)NC(=NCc2ccccc2)NC1=O,inconclusive: -34%
8,Cc1noc(C)c1CSCC(=O)Nc1ccc(C#N)c(Cl)c1,inactive: -13%
9,O=C(c1ccc2c3c(cccc13)CC2)C1CCCN(Cc2ncc[nH]2)C1 (stereo unspecified),inactive: -12%
10,C[C@H](NC(=O)CCC(=O)N1C[C@H]2C[C@H](C1)c1cccc(=O)n1C2)c1ccccc1,inactive: 12%
11,CN1CCC(N(C)c2nc(-c3ccc([N+](=O)[O-])cc3)nc3ccccc23)CC1,inactive: -27.1%
12,COC(=O)C1=C(c2ccc(F)cc2OCc2ccccc2)C[C@@H]2CC[C@H]1N2C(=O)NCc1ccccc1Br,inconclusive: -46%
13,COc1cc(/C=C(/C)[N+](=O)[O-])ccc1OCc1ccccc1Cl,inconclusive: -33.4%
14,Cc1ccc(C2=CCNCC2)cc1,inconclusive: -34.8%
15,Cc1ccccc1CN1CCCN(Cc2ccc(Cl)cc2)S1(=O)=O,inconclusive: -42.7%
16,CN1C(=O)C(=Cc2ccc(N3CCCCCC3)o2)C(=O)N(C)C1=S,inconclusive: -45.1%
17,Fc1ccc2c(c1)nnn2C1CCN(Cc2ccccc2)CC1,active: -77.8%
18,O=c1[nH]c(O)c(N=Nc2cc([N+](=O)[O-])ccc2O)c(=O)[nH]1,inconclusive: -45.9%
19,CCc1cc2c(N3CCN(C)CC3)ncnc2s1,inconclusive: -45.8%
20,O=C(c1ccc(Cl)cc1)C1CCCN(Cc2ccc3ncccc3c2)C1 (stereo unspecified),inconclusive: -45.9%
21,COc1cc2c(cc1O)[C@@H]1Cc3ccc(OC)c(O)c3CN1CC2,active: -99.6%
22,COc1ccc(CN2CCN(Cc3ccccc3)CC2)c(OC)c1,active: -113%

row,Structure (SMILES),"max response, negative = inhibition"
1,CCOC(=O)[C@]12Cc3cc(Cl)ccc3[C@H]1N(Cc1ccccc1)C(=O)c1ccccc12,inconclusive: -31.2%
2,O=C(COc1ccc2ccccc2c1)N1CCN(Cc2c[nH]c3ccccc23)CC1,inconclusive: -33.1%
3,C/C1=C\[C@@H](C)C/C=C/[C@H]2[C@@H]3O[C@]3(C)[C@@H](C)[C@H]3[C@H](Cc4c[nH]c5ccccc45)NC(=O)[C@]32C(=O)/C=C/C(=O)[C@@H]1O,active: -51%
4,Cc1ccc2c(CN3CC=C(c4ccccc4)CC3)cc(=O)oc2c1C,inactive: -26.7%
5,CCCCCCN1CCN(c2ccccc2Cl)CC1,active: -115%
6,FC(F)(F)c1ccccc1CN1CCN(Cc2ccccc2)CC1,inconclusive: -42.9%
7,C=C1C(=O)[C@@]23C[C@H]4[C@@H]5[C@@]6(C)CCC[C@@]57[C@@H]2[C@@H](O)[C@@H]1C[C@H]3[C@H]7N4C6,inconclusive: -32.2%
8,CN1CCC(c2c[nH]c3ccc(O)cc23)CC1,inconclusive: -35.9%
9,CC(C)[C@@]1(NC(=O)[C@@H]2C[C@@H]3c4cccc5[nH]cc(c45)C[C@H]3N(C)C2)O[C@@]2(O)[C@@H]3CCCN3C(=O)[C@H](Cc3ccccc3)N2C1=O,active: -96.1%
10,COC(=O)C1=C(c2ccc(F)cc2OCc2ccccc2)C[C@@H]2CC[C@H]1N2C(=O)NC1CCN(Cc2ccccc2)CC1,active: -108%
11,CN1CCCN(C(=O)COc2cccc(C(F)(F)F)c2)CC1,active: -88.8%
12,Clc1ccc(Cn2ccnc2)cn1,inactive: 11.1%
13,Cc1cccc(CN2CCN(Cc3ccc(Cl)cc3)CC2)c1,active: -64.1%
14,CCN[C@@H](C)Cc1cccc(C(F)(F)F)c1,inconclusive: -38.3%
15,CCOC(=O)[C@]12Cc3cc(C)ccc3[C@H]1N(C)C(=O)c1cc(OC)ccc12,inconclusive: -42.8%
16,COC(=O)C1=C(c2c(C)noc2C)C[C@@H]2CC[C@H]1N2C(=O)NCCOc1ccccc1Cl,inconclusive: -40.2%
17,Cc1ccsc1C(=O)C1CCCN(Cc2sc(N(C)C)nc2Cl)C1 (stereo unspecified),inconclusive: -37.1%
18,O=P(O)(O)Cc1ccccc1OP(=O)(c1ccccc1)c1ccccc1,inconclusive: -31.4%
19,C=CCn1c(O)c(N=Nc2c(C)n(C)n(-c3ccccc3)c2=O)c(=O)[nH]c1=S,active: -57.2%
20,CC(=NCCCN1CCCCC1)c1c(O)n(Cc2ccccc2)c(=O)[nH]c1=O,inconclusive: -45.6%
21,CC(C)N1CCN(Cc2cccc([N+](=O)[O-])c2)CC1,inconclusive: -32.9%
22,O=C(Cc1ccccc1)N1CCN(Cc2c[nH]c3ccccc23)CC1,inconclusive: -40%

row,Structure (SMILES),"max response, negative = inhibition"
1,c1ccc(Nc2ccc3ccccc3c2)cc1,inactive: -16.7%
2,CCOC(=O)C1=C(C)N(C)C2(C)CC1c1ccccc1O2 (stereo unspecified),inconclusive: -34.5%
3,c1ccc(CCc2ccc3n2Cc2cnnn2-c2ccccc2-3)cc1,inactive: -20.2%
4,Cc1cc(=O)oc2c(C)c(OCC(=O)N3CCC(C(=O)O)(c4ccccc4)CC3)ccc12,inconclusive: -41.6%
5,NP(=O)(OCC(F)(F)F)Oc1ccccc1 (stereo unspecified),inactive: -21.1%
6,c1ccc2c(N3CCNCC3)nsc2c1,active: -70.4%
7,C[C@@]1([C@@H](NP(=O)(c2ccccc2)c2ccccc2)c2ccccc2)C[C@H]1CCO,inconclusive: -31.8%
8,CCOc1ccc(N2C(=O)/C(=C/c3ccco3)C(=O)NC2=S)cc1,inconclusive: -30.9%
9,Cc1ccc2nc(N3CCC(C(=O)N4CCC5(CC4)OCCO5)CC3)sc2c1,active: -51%
10,CCCCC(=O)N/N=C/c1c(O)n(CC)c(=S)n(CC)c1=O,inconclusive: -31.5%
11,CCn1nc(/C=C/c2ccccc2)nc2c(=O)n(C)c(=O)nc1-2,inconclusive: -48.7%
12,Cc1c(CC(=O)N2C[C@H]3C[C@@H](C2)c2cccc(=O)n2C3)c(=O)oc2cc(O)c(Cl)cc12,inactive: -8.71%
13,Cc1ccc(N2C(=O)NC(=O)/C(=C\C=C\c3ccco3)C2=O)cc1C,active: -58.6%
14,CCOC(=O)[C@]12Cc3cc(Cl)ccc3[C@H]1N(Cc1ccccc1)C(=O)c1cc(OC)ccc12,inconclusive: -33.4%
15,CC1CC2CC(=O)CCC2(C)C2CCC3(C)C(O)CCC3C12 (stereo unspecified),inactive: 24.2%
16,CN1CC(C(=O)c2ccc(Cl)cc2)C(c2ccccc2)C1 (stereo unspecified),inconclusive: -37.2%
17,COC(=O)C1=C(c2ccc3ccccc3c2)C[C@@H]2CC[C@H]1N2C(=O)NCCO,inconclusive: -41.4%
18,Cc1cc(C)cc(N2C(=O)NC(=O)/C(=C\c3cccn3-c3ccccc3)C2=O)c1,inconclusive: -32.8%
19,Brc1cccc(CNCCc2ccc3c(c2)OCO3)c1,inconclusive: -44.2%
20,COC(=O)C1=C(c2cc3ccccc3o2)C[C@@H]2CC[C@H]1N2C(=O)NCCO,inactive: 0.149%
21,COc1ccc(CCNCc2cccn2C)cc1OC,inactive: -4.9%
22,CCOc1ccccc1NC(=O)N1CCC2(CC1)OCCO2,inconclusive: -48.2%

# Looked up above.
# max response, negative = inhibition with O=C(c1ccc(Cl)cc1)C1CCCN(Cc2ccc3ncccc3c2)C1 (stereo unspecified) reads inconclusive: -45.9%
# max response, negative = inhibition with c1ccc(Nc2ccc3ccccc3c2)cc1 reads inactive: -16.7%
# max response, negative = inhibition with CCOC(=O)[C@]12Cc3cc(Cl)ccc3[C@H]1N(Cc1ccccc1)C(=O)c1ccccc12 reads inconclusive: -31.2%

# Later entries

row,Structure (SMILES),"max response, negative = inhibition"
1,CCCCn1c(O)c(C(CC)=NCCN2CCCCC2)c(=O)[nH]c1=O,inconclusive: -35.6%
2,Cc1cccnc1-n1c(C)nc2ccccc2c1=O,inconclusive: -34.3%
3,Cc1ccc(C2CN(C)CC2C(=O)c2ccc(F)cc2)cc1 (stereo unspecified),active: -102%
4,ON1C2CCCCC2N(O)C1c1ccccc1F (stereo unspecified),inconclusive: -37.3%
5,CCOC(=O)C1(CCCc2ccccc2)CCN(C2CCCC2)CC1,inconclusive: -38.5%
6,Cc1ccc(S(=O)(=O)NCC2CCC(C(=O)N3CCC4(CC3)OCCO4)CC2)cc1 (stereo unspecified),inconclusive: -36%
7,Cn1cccc1/C=C1\C(=O)NC(=O)N(CCC2=CCCCC2)C1=O,inconclusive: -44.5%
8,O=C1NC(=O)C(=Cc2ccc(Sc3ccccc3)o2)C(=O)N1,inactive: -22.3%
9,CCN1C(=O)/C(=C/c2ccc(N(CC)CC)cc2OC)C(=O)NC1=S,inactive: -7.24%
10,O=C1NC(=O)C(=Cc2ccc(-c3ccc(Cl)cc3)o2)C(=O)N1,inconclusive: -44.6%
11,Cn1c(O)c(C(=NCCN2CCCCC2)c2ccccc2Cl)c(=O)n(C)c1=O,inconclusive: -34%
12,Cc1cc(/C=C2\C(=O)NC(=O)N(C)C2=O)c(C)n1-c1ccc2c(c1)OCO2,inconclusive: -47.8%
13,Cc1cccc(NC(=O)C(C)N2CC=C(c3ccccc3)CC2)c1 (stereo unspecified),inconclusive: -40.3%
14,COc1ccc(CCNCc2ccsc2)cc1OC,inactive: -11.2%
15,CCn1cc(CN2CCCC(C(=O)c3cccc(C(F)(F)F)c3)C2)cn1 (stereo unspecified),active: -84.1%
16,O=C(NCC1=C(c2ccc3ccccc3c2)C[C@@H]2CC[C@H]1N2Cc1ccco1)c1ccc([N+](=O)[O-])cc1,inconclusive: -37.2%
17,COc1ccc(-n2c(O)c(C(C)=NCCCn3ccnc3)c(=O)[nH]c2=O)cc1,inconclusive: -39.7%
18,Cc1ccc(N=Nc2c(O)[nH]c(=O)[nH]c2=O)c([N+](=O)[O-])c1,inconclusive: -31.9%
19,COc1ccccc1CN1CCCC(C(=O)c2ccccc2OC)C1 (stereo unspecified),active: -59.4%
20,O=c1[nH]c2ccccc2n1C1CCN(C(c2ccccc2)c2nnnn2-c2ccc3c(c2)OCCO3)CC1 (stereo unspecified),inactive: 130%
